Reference: doi:10.1101/2024.06.23.598940
Results are given in words; binding and its absence hold for the method and conditions named. In cells and extracts the contact can be indirect. Some entries that bind do so weakly or less than the wild type.

Sequences of proteins named here, by UniProt entry; tags and fusion partners are left off. Residues count along the entry.
UniProt P53762: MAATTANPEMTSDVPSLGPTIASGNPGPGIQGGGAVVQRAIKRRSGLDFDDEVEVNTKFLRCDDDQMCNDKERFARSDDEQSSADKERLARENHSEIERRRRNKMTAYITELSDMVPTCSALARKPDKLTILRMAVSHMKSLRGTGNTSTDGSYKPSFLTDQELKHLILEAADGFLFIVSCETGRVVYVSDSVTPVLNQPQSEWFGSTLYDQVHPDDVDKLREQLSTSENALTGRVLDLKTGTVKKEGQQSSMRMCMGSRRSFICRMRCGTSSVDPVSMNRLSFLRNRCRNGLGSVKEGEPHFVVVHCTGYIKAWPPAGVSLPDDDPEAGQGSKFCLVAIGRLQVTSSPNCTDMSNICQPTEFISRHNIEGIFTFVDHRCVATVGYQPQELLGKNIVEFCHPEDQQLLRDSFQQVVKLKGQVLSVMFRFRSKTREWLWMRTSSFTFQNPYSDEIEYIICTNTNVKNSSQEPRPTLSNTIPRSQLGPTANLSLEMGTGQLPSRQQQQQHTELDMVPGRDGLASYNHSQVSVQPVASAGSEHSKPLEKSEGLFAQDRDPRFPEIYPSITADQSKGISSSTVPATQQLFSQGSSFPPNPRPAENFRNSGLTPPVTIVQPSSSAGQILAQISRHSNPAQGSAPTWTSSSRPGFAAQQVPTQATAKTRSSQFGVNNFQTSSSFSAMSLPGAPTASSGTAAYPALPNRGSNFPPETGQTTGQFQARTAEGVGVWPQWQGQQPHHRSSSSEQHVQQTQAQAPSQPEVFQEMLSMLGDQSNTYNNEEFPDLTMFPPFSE
UniProt P30561, residues 10-848: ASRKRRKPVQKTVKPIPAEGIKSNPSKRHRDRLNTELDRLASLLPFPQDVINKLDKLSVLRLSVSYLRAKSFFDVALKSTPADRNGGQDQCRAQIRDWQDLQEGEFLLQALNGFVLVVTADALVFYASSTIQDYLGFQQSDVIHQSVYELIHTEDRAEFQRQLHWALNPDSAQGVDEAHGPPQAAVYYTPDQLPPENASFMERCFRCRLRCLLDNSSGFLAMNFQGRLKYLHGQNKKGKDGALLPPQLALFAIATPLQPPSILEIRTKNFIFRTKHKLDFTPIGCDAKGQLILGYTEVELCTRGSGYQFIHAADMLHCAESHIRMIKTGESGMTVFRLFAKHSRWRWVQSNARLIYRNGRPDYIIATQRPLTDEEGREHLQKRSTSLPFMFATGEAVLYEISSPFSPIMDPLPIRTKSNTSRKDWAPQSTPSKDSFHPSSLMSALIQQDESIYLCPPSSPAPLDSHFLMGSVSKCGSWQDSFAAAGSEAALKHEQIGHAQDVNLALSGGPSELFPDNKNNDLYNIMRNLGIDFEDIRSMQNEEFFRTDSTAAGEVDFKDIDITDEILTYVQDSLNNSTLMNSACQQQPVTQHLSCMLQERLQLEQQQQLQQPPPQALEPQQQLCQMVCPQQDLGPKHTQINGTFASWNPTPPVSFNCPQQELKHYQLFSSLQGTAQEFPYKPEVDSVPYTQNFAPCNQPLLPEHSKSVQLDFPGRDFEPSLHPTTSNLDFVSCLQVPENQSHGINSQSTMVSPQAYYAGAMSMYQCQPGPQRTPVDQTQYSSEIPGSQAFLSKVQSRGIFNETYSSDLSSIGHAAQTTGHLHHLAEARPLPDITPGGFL

Molecular target: AhR nuclear translocator (ARNT) (mouse (endogenous in primary mouse astrocytes)) (UniProt P53762)
Assay: co-IP

aryl-hydrocarbon receptor (AhR) (from UniProt P30561 10-848)
binding: binds
